# From the supplement of paper PMC7646827
# Counter-ions that a name gives are not always drawn. Many values rest on one well or one pass, so single values are uncertain.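 All cells are established human bladder cancer lines, one derived from a patient-derived xenograft. A luminescent ATP assay measured viability as percent inhibition relative to vehicle across seven dilutions. The paper rates scores above 59 very active, 30–59 active, 21–29 semi-active, 9–20 low active, below 9 inactive.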
# Experiments:
# Assay in all cases: drug sensitivity score DSS3 (score 0-100); higher = more sensitive; extreme values may be limits of the assay
# Settings in all cases: culture: 3D, ultra-low attachment; treatment time: 5 days
# UM-UC-12 = tested on: UM-UC-12
# UM-UC-9 = tested on: UM-UC-9
# UM-UC-3 = tested on: UM-UC-3
# SW780 = tested on: SW780
# BC8149 = tested on: BC8149
# UM-UC-18 = tested on: UM-UC-18
# UM-UC-6 = tested on: UM-UC-6
# T-24 = tested on: T-24
# UM-UC-14 = tested on: UM-UC-14
# UM-UC-5 = tested on: UM-UC-5
# UM-UC-17 = tested on: UM-UC-17
# SCaBER = tested on: SCaBER
# TCCSUP = tested on: TCCSUP
# J82 = tested on: J82
# UM-UC-1 = tested on: UM-UC-1
# 5637 = tested on: 5637
# UM-UC-15 = tested on: UM-UC-15
SMILES,drug sensitivity score DSS3 (UM-UC-12),drug sensitivity score DSS3 (UM-UC-9),drug sensitivity score DSS3 (UM-UC-3),drug sensitivity score DSS3 (SW780),drug sensitivity score DSS3 (BC8149),drug sensitivity score DSS3 (UM-UC-18),drug sensitivity score DSS3 (UM-UC-6),drug sensitivity score DSS3 (T-24),drug sensitivity score DSS3 (UM-UC-14),drug sensitivity score DSS3 (UM-UC-5),drug sensitivity score DSS3 (UM-UC-17),drug sensitivity score DSS3 (SCaBER),drug sensitivity score DSS3 (TCCSUP),drug sensitivity score DSS3 (J82),drug sensitivity score DSS3 (UM-UC-1),drug sensitivity score DSS3 5637,drug sensitivity score DSS3 (UM-UC-15)
CC(C)(NS(=O)(=O)c1ccc2c(Cl)cnc(N=C(N)N)c2c1)C(=O)O (max dose 10000 nM),0,0,0,0,0,0,0,0,0,0,0,0,0,0,0,0,0
CN(C)CCOc1ccc(-c2nc(-c3ccncc3)c(-c3ccc4c(c3)CC/C4=N\O)[nH]2)cc1 (max dose 10000 nM),0,0,0.269,0,0,0,0.078,0,0,0.91,0,0.35,5.41,0,1.94,1.05,0
CN1CCC(COc2cnc(-c3cccc(Cn4nc(-c5cccc(C#N)c5)ccc4=O)c3)nc2)CC1 (max dose 10000 nM),0,0,0,0,0,0,0.0684,0,0.000695,0,0,0,0,0,0,0,0
COc1c(C)c(C(=O)c2ccc(N)c(C(=O)O)c2)n2ccccc12 (max dose 10000 nM),0,0,0,0,0,0,0,0,0,0,0,0,0,0,0,0,0
COc1cc(F)ccc1-c1ncnc(Nc2cccc(C[S@](C)(=N)=O)c2)n1 (max dose 10000 nM),4.86,6.41,16.6,1.94,8.24,5.08,10.2,3.47,1.94,13,2.69,6.74,3.17,2.74,11.9,3.14,11.1
Cc1cccc(-c2[nH]c(C(C)(C)C)nc2-c2ccc3nccnc3c2)n1 (max dose 10000 nM),0.94,0,0.589,0,0,0.0889,0,0.0283,0,0,0,0,0,0,0,0.308,0
N#Cc1ccc(COC[C@H]2O[C@@H](n3c(NCc4ccc(Cl)c(Cl)c4)nc4c(N)ncnc43)[C@H](O)[C@@H]2O)cc1 (max dose 10000 nM),2.85,1.35,0.718,0.627,12,3.57,2.16,0.608,1.17,1.21,0,2.42,8.06,1.41,2.12,2.99,0
NC(=O)c1noc([C@H](CCCC2CCCCC2)CC(=O)NO)n1 (max dose 10000 nM),0.365,0,0.94,0,1.49,2.96,0.00428,2.12,0,0,0,0,0.0852,0,0,1.39,0
Nc1ccc(C(=O)Nc2cccc(-c3nc(N4CCOCC4)c4oc5ncccc5c4n3)c2)cn1 (max dose 10000 nM),0,0,1.07,0,0.579,0,0,0,0.639,3.88,0,0,0,0,0.986,0.278,0
O=C(Nc1ccccc1Br)N[C@@H]1CCN(c2ccc(C(F)(F)F)cn2)C1 (max dose 10000 nM),0,0,0,0,0,0,0,0,0,0,0,0,0,0,37.3,0,2.05
O=C(Nc1ccncc1)c1cc([N+](=O)[O-])ccc1Cl (max dose 10000 nM),0,0,0,0,0,3.78,0,0,0,0,0,0,0,0,0,0,0
COc1cc2c(cc1O)CC[C@@H]1[C@@H]2CC[C@]2(C)[C@@H](O)CC[C@@H]12 [2-Methoxyestradiol (2-MeOE2)] (max dose 10000 nM),10,4.19,23.1,0,13.5,5.18,0.211,0,0.0912,13.9,3.61,0.943,19.1,0.451,4.62,20.1,0
Cn1cnc(N)c2ncnc1-2 [3-Methyladenine] (max dose 10000 nM),0,0,0,0,0,0,0,0,0,0,0,0,0,0,0,0,0
O=c1[nH]cnc2ccccc12 [4-Hydroxyquinazoline] (max dose 10000 nM),0,0,0,0,0,0,0,0,0,0,0,0,0,0,0,0,0.279
CO[C@H]1/C=C\C=C(/C)C(=O)NC2=CC(=O)C(NCCN(C)C)=C(C[C@@H](C)C[C@H](OC)[C@H](O)[C@@H](C)/C=C(\C)[C@@H]1OC(N)=O)C2=O [17-DMAG (Alvespimycin) HCl] (max dose 10000 nM),27.1,33,40.1,20.9,57.5,48.6,19.9,35.7,29.2,36.1,29.4,58.1,77.9,10.4,33.6,65.4,35.1
O=C(O[C@@H]1Cc2c(O)cc(O)cc2O[C@@H]1c1cc(O)c(O)c(O)c1)c1cc(O)c(O)c(O)c1 [(-)-Epigallocatechin Gallate] (max dose 10000 nM),0,0.214,0.876,0.272,1.2,0.793,1.53,0,1.13,0,3.45,2.39,6.57,0,1.66,5.02,0
C/C=C1\[C@H]2C=C(C)C[C@]1(N)c1ccc(=O)[nH]c1C2 [(-)-Huperzine A (HupA)] (max dose 10000 nM),0,0,0,0,0,0,0,0,0,0,0,0,0,0,0,0,7.93
COc1cc2c(cc1OCCCN1CCCC1)N=C(N)C21CCC1 [A-366] (max dose 10000 nM),0,0,0.00585,0,0.474,2.99,0,0,0.292,0,0,0,1.76,0,0,1.02,5.43
CC1(C)CCC(c2ccc(Cl)cc2)=C(CN2CCN(c3ccc(C(=O)NS(=O)(=O)c4ccc(N[C@H](CCN5CCOCC5)CSc5ccccc5)c(S(=O)(=O)C(F)(F)F)c4)cc3)CC2)C1 [ABT-263 (Navitoclax)] (max dose 10000 nM),49.1,22.1,26.7,32.7,59.6,29.6,29,16.7,20.8,37.2,46.6,39.8,65.7,16.9,54.7,70.4,0
CN(C)CC[C@H](CSc1ccccc1)Nc1ccc(S(=O)(=O)NC(=O)c2ccc(N3CCN(Cc4ccccc4-c4ccc(Cl)cc4)CC3)cc2)cc1[N+](=O)[O-] [ABT-737] (max dose 10000 nM),13.4,1.65,7.3,2.42,24.6,5.97,4.35,1.45,9.01,8.37,2.34,12.1,19.9,1.93,5.58,33.3,0
COc1ccc(S(=O)(=O)Nc2cccnc2Nc2ccc(O)cc2)cc1 [ABT-751 (E7010)] (max dose 10000 nM),1.15,0,1.36,1.9,7.78,6.5,6.54,0.786,10.5,0,11.9,2.71,26.6,0.801,7.85,15.1,0
Cc1c(NC(=O)OC[C@@H]2COCCN2)cn2ncnc(Nc3ccc4c(cnn4Cc4cccc(F)c4)c3)c12 [AC480] (max dose 10000 nM),0,0,0.29,0,0,0,0.85,0,0,0,0,3.39,0.198,0,0,1.46,0
CCN1CCN(Cc2ccc(-c3cc4c(N[C@H](C)c5ccccc5)ncnc4[nH]3)cc2)CC1 [AEE788 (NVP-AEE788)] (max dose 10000 nM),3.41,1.11,1.14,0,0,3.71,1.93,1.52,1.14,0,0.907,1.06,0.984,0,0.724,5.56,0
O=C(Nc1cccc(C(F)(F)F)c1)Nc1cc(S(=O)(=O)NC2CC2)ccc1-c1ccsc1 [AGI-6780] (max dose 10000 nM),0,0,2.51,0,1.16,0,0,0.637,0,0,0,0,0.0814,0,0,0,14.6

# One compound at a time, from the list above. Order of values: drug sensitivity score DSS3 (UM-UC-12)	drug sensitivity score DSS3 (UM-UC-9)	drug sensitivity score DSS3 (UM-UC-3)	drug sensitivity score DSS3 (SW780)	drug sensitivity score DSS3 (BC8149)	drug sensitivity score DSS3 (UM-UC-18)	drug sensitivity score DSS3 (UM-UC-6)	drug sensitivity score DSS3 (T-24)	drug sensitivity score DSS3 (UM-UC-14)	drug sensitivity score DSS3 (UM-UC-5)	drug sensitivity score DSS3 (UM-UC-17)	drug sensitivity score DSS3 (SCaBER)	drug sensitivity score DSS3 (TCCSUP)	drug sensitivity score DSS3 (J82)	drug sensitivity score DSS3 (UM-UC-1)	drug sensitivity score DSS3 5637	drug sensitivity score DSS3 (UM-UC-15)
# `O=c1[nH]cnc2ccccc12` [4-Hydroxyquinazoline] (max dose 10000 nM) in the list: 0	0	0	0	0	0	0	0	0	0	0	0	0	0	0	0	0.279
# `Nc1ccc(C(=O)Nc2cccc(-c3nc(N4CCOCC4)c4oc5ncccc5c4n3)c2)cn1` (max dose 10000 nM) in the list: 0	0	1.07	0	0.579	0	0	0	0.639	3.88	0	0	0	0	0.986	0.278	0
